Measurements taken from patent US20250115628A1, “FLUORINATED FLUOROPHORES” (HOWARD HUGHES MEDICAL INSTITUTE, priority 2023, published 2025).

System: ScAMPI (SNAP-tag®-Epac1-HaloTag®) expressed in U2OS cells
Assay: cAMP FLIM-FRET sensor ScAMPI (fluorescence lifetime imaging)
Type: cell-based
Excerpt: The Epac-based cAMP sensor “Epac-S^H189”, was obtained from Addgene (Plasmid #170348). This sensor consists of a mTurquoise fluorescent protein and a tdDark Venus protein linked via the Epac1 protein.
To construct the SNAP-tag®-Epac1-HaloTag® sensor, the sequence encoding the tdDark Venus domain in Epac-S^H189 was first replaced with the HaloTag® sequence using Nhe1 and Asc1 fragment ligation (NEB), creating a construct with mTurquoise and HaloTag® flanking the Epac1 domain (i.e, mTurquoise-Epac1-HaloTag®).
A gene block encoding the SNAP-tag® self-labeling protein (IDT) was then used to replace the portion encoding the mTurquoise domain in the mTurquoise-Epac1-HaloTag® using HindIII and AgeI fragment ligation. The sequence of this final plasmid encoding ScAMPI (i.e, SNAP-tag®-Epac1-HaloTag®) was confirmed through sequence analysis (Genewiz).
To evaluate this semisynthetic system in cells, U2OS cells (ATCC) were maintained in DMEM (Corning) containing 10% v/v FBS (ATCC), 1% v/v L-glutamine (Gibco) and 1% v/v Pen/Strep (Gibco). Cells were transfected with plasmid DNA using nucleofection (Lonza) and labeled 48 h post-transfection with 100 nM of JFX612^−SNAP-tag® (88STL) and 200 nM of the JQ645-HaloTag® ligand (65HTL) for 1 h. Cells were washed with 1×PBS (3×) and recovered in fresh medium for 30 min before imaging. Fluorescence lifetime imaging was performed with a Leica SP8 Falcon using LASX software for image acquisition and analysis. […] Fluorescence emission was collected by the HyD detector. The SNAP-tag® donor dye was excited at 610 nm and emission was collected at 620-720 nm. FLIM images were acquired before and 10 min after stimulation with 25 µM forskolin. FLIM data were fitted with two-component exponential fitting function yielding quenched lifetime (τ1) and unquenched lifetime (τ2). Mean amplitude weighted lifetime image (τmean) was calculated by fixing the two lifetimes and performing an image fit for their respective amplitudes (a1 and a2). FRET efficiency was calculated using the mean lifetime obtained in absence (τmean,-forskolin) and (τmean,+forskolin) presence of forskolin as 1^−(τmean,-forskolin/τmean,+forskolin).

Row | Structure (SMILES) | fluorescence lifetime at rest (ScAMPI labeled with 88STL (donor) and 65HTL (acceptor), FLIM, mean±SD) [ns] | fluorescence lifetime after forskolin (ScAMPI labeled with 88STL and 65HTL, application of forskolin) [ns] | Δτ (ScAMPI labeled with 88STL and 65HTL, ±forskolin) [ns] | fluorescence lifetime, donor fluorophore alone (cells labeled with the JFX612 donor only, FLIM) [ns]
1 | C=C/C=C(C=C)/[N+](C)=C1\C=CC2=C(c3c(F)c(C(=O)NCCOCCOCCCCCCCl)c(F)c(F)c3C(=O)[O-])c3ccc(N(C)c4ccccc4)cc3C(C)(C)C2=C1 [65HTL, JQ645-HaloTag® ligand] | 2.34±0.10 | 3.32±0.18 | 0.98 | 
2 | [2H]C1([2H])N(c2ccc3c(c2)C(C)(C)C2=CC(=[N+]4C([2H])([2H])C([2H])([2H])C([2H])([2H])C4([2H])[2H])C=CC2=C3c2cc(C(=O)NCc3ccc(COc4nc(N)nc5[nH]cnc45)cc3)ccc2C(=O)[O-])C([2H])([2H])C([2H])([2H])C1([2H])[2H] [88STL, JFX612^−SNAP-tag® ligand] |  |  |  | 4.30±0.01
